According to patent US20150004162A1:
No constants are given. Whether binding was seen depends on the method and setting. Some results given as binding are weak or reduced against the parent protein; the word gives no strength. Tags and fused reporters may be left off the sequences shown.

The chains behind the UniProt entries cited, without tags or fusion partners. Residues count along the entry.
UniProt P50591, residues 114-281: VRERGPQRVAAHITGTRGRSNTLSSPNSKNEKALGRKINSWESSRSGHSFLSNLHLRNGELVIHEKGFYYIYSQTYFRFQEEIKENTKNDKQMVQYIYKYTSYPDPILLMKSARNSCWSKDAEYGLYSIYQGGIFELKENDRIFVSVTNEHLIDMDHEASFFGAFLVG

What was measured:
mouse DR5-Fc (mouse) [1] = molecular target: T1, mouse DR5-Fc (mouse) (UniProt Q9QZM4); test: ELISA with biotinylated TRAIL on coated mouse DR5-Fc (Example 7, FIG. 5)
T1 sequence (looked up): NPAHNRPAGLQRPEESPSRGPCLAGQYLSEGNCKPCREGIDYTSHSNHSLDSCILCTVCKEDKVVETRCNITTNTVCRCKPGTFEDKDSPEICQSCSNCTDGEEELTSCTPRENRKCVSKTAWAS

[2] = molecular target: T2, Rhesus (NHP-2) DR4-Fc (Rhesus) (UniProt F6TP00); test: ELISA on coated NHP-2 DR4-Fc, detection with Streptavidin-HRP [panel C]
T2 sequence: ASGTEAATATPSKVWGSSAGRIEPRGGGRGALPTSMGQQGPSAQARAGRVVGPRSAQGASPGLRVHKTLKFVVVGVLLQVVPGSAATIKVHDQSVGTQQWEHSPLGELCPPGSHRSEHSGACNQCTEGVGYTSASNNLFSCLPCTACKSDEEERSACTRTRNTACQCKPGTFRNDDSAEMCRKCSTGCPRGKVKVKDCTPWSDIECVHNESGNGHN

mouse DR5-Fc (mouse) [3] = molecular target: T1, mouse DR5-Fc (mouse); test: ELISA, 100 ng/well mouse DR5-Fc, 10 nM biotinylated TRAIL, detection HRP-Streptavidin

Measured: binding

biotinylated TRAIL (from UniProt P50591 114-281) (ligand)
binds: all assays above
